Where a name gives a salt, the structure may show the parent alone.
Target: Nrf2-Keap1 complex (Homo sapiens, UniProt Q14145)
Experiment: cell-based
Details: 3 h

Sequences of proteins named here, by UniProt entry; tags and fusion partners are left off.
UniProt Q14145, whole entry: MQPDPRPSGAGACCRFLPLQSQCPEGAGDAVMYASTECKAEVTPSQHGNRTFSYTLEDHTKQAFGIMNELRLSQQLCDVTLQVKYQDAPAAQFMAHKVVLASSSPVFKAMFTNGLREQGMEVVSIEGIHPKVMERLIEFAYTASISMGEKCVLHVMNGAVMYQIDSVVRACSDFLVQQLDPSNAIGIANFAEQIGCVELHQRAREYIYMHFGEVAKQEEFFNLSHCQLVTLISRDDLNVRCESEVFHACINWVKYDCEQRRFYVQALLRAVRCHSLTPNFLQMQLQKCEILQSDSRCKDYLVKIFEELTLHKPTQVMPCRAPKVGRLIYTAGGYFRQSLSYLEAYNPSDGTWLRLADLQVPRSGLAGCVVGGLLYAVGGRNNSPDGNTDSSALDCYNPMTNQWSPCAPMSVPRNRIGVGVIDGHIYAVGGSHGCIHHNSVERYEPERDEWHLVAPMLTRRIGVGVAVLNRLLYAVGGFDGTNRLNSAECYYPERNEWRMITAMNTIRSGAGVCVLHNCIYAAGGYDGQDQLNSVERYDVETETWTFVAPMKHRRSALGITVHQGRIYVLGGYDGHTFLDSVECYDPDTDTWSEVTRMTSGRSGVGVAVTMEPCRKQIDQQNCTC

`CN(C)CCCN1c2ccccc2CCc2ccc(Cl)cc21` [CLOMIPRAMINEHYDROCHLORIDE, reference compound] gave an activation at 16 µM (read-out: Activation 100 nL) of 39% and an activation at 32 µM (read-out: Activation 200 nL) of 0%.
